In US20260207548A1, “METHODS AND COMPOSITIONS FOR THE TREATMENT OF VASCULAR ANOMALIES” (THE CHILDREN'S MEDICAL CENTER CORPORATION, priority 2022, published 2026):
Entries after “also recorded” stand apart in the source; their conditions may differ.

Experiments:
[1] = test system: murine blood vessels; settings: maximum dose of simvastatin or atorvastatin vs vehicle
[2] = test system: Hemangioma-derived stem cells (HemSC); test: IH xenograft model: patient-derived HemSC in Matrigel injected subcutaneously into nude mice, human blood vessel formation; assay type: in vivo
Protocol: MilliporeSigma) was prepared in DMSO. […] Histology and IF analysis: […] Dako, Glostrup, 0823) to stain human ECs. Next, sections were incubated with Alexa Fluor 647 chicken anti-mouse IgG (1:200, Invitrogen, Thermo Fisher Scientific) as a secondary antibody (FIG. 9C, 9D).

CC(C)c1c(C(=O)Nc2ccccc2)c(-c2ccccc2)c(-c2ccc(F)cc2)n1CC[C@@H](O)C[C@@H](O)CC(=O)O [atorvastatin]
density of murine blood vessels in the Matrigel implants [1]: unaffected | vessel formation / vessel density ([2]; 1 mg/kg/d, i.p. twice a day, 7 days, vs vehicle): significantly inhibit vessel formation; also recorded: significant inhibitory effect on vessel formation; also recorded: significant reduction of vessel density | vessel density (vessels/mm2) ([2]; atorvastatin 1, 5, 10 or 15 mg/kg/d every 12 hours for 7 days): significant reduction in vessel density at each dose
